PubChem BioAssay AID651664 (NMMLSC, 2012)
The whole screen tested about 1,800 compounds, of which fewer than 10 were called active.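 The calls were made as follows: active = inhibition of granule release above a set limit; inactive = the rest.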 The list shows a part of the results.

test: LAMP-1 surface externalization blockers in TALL-104 cells – cell-based, flow cytometry, validation set (AID 651664); conditions: TALL-104 LAMP-1 externalization, at 15.2 µM, stronger effect = higher value, stimulated with thapsigargin and PMA

inhibition, inactive:
Cc1nc2ccc(S(=O)(=O)N(C)CC(=O)N3CCc4ccccc4C3)cc2s1 3.6%
O=c1c2c([nH]c3ccc(Br)cc13)CCCC2 4.2%
O=C(NCC1CCCO1)c1ccc2c(c1)C(=O)N(C1CCCCC1)C2=O (configuration not stated) -1.5%
COc1ccccc1C(c1nnnn1C(C)(C)C)N1CCCc2ccccc21 (configuration not stated) 4.7%
c1ccc(COc2ccc(-c3csnn3)cc2)cc1 -0.3%
Cc1ccc(S(=O)(=O)N2CCN(C(C)C(=O)N3CCCc4ccccc43)CC2)cc1 (configuration not stated) -2.3%
Cn1cc(C(=O)c2ccc(Cl)cc2Cl)cc1C(=O)N/N=C(\N)COc1ccccc1 -1.3%
CCOC(=O)c1sc2nc(CC(=O)OC)nc(NCc3ccco3)c2c1C -2.3%
O=C(Nc1cccc(Cl)c1)Nc1nc(-c2ccc(Cl)cc2)cs1 -1.9%
C=CCOn1c(=O)c(-c2ccc(OC)cc2)[n+]([O-])c2ccccc21 2.5%
COc1cccc(C(C)NC(=O)Nc2cccc(C(F)(F)F)c2)c1 (configuration not stated) 0.9%
COc1ccc(-c2nc3n(c(=O)c2C#N)CCCS3)cc1 1.5%
O=C1c2ccccc2-c2c1nc1c([n+]2[O-])CCCC1 -5.1%
CC(C)c1nnc(NC(=O)c2c(O)c3cccc4c3n(c2=O)CCC4)s1 2.7%
Fc1ccc(CSc2nnc(CN3CCOCC3)n2-c2ccccc2)c(Cl)c1 -2.2%
Cn1c(Cl)c(C(=O)Nc2ccccc2)c2ccccc21 -1.3%
O=C(CC(=O)NC1CCCCC1)N/N=C/c1cccc2ccccc12 0.1%
COc1cccc(CNCCc2c[nH]c3ccccc23)c1OCc1ccc(F)cc1 6.3%
Brc1ccc(-c2nc(-c3ccccn3)no2)o1 -2.5%
O=C(/C=C/Nc1cccc(C(F)(F)F)c1)c1ccc(Oc2ncccn2)cc1 -1%
O=C(NCc1cccnc1)c1ccc(CS(=O)(=O)Cc2ccc(Cl)cc2)o1 -2.8%
CCC(C)(C)C1CCC2(CC1)NC(CO)(CO)CO2 (configuration not stated) -0.4%
CCOC(=O)c1c(-c2cccs2)csc1NC(=O)CN1CCOCC1 -3.3%
Cc1ccc2nc(C)cc(N3CCOCC3)c2c1 -0.9%
Cc1cc2c(cc1C)NC(c1cccnc1)C1=C(CC(C)(C)CC1=O)N2 (configuration not stated) -3.9%
O=C1CSC(=NC2CCCCC2)N1 3.9%
Cc1oc2nc(SCCCC(=O)NCCO)nc(N)c2c1C 2.7%
CC(C)OC(=O)NCN1C(=O)C2C3C=CC(C3)C2C1=O (configuration not stated) 0%
CCN(CC)CCNC(=O)c1ccc(N2CCCCC2)c(NS(=O)(=O)c2ccc(C)cc2)c1 1.6%
Clc1ccc(CSc2nnc(NC3=NCCCCC3)s2)cc1 -2.4%
N#Cc1cnn(-c2nc3sc4c(c3c(=O)[nH]2)CCCC4)c1N 2.3%
COc1ccc(N2C(=O)C(Cl)=C(Nc3ccccc3O)C2=O)cc1 0.2%
O=[n+]1c2c(n([O-])c3cc(Br)ccc31)CCC2 -1%
Clc1cnc(N/N=C/c2cccs2)c(Cl)c1 0.4%
CCOC(=O)c1sc(NC(=O)CSc2nnnn2-c2ccc(C)c(C)c2)nc1C -1.4%
COC(=O)c1nn(C23CC4CC(CC(C4)C2)C3)c2c1C(=O)N(c1ccc(Br)cc1)C2=O -3%
CCCCCc1nc2sc3c(c2c(=O)n1N)CCC3 4.8%
CS(=O)(=O)N(CC(=O)Nc1ccccc1Sc1ccccc1)c1ccc(F)cc1 6.1%
CC1(C)CC2(CC(C)(C)NC(=O)N2)NC(=O)N1 1.8%
Cc1cccc(N2CCN(CC(=O)Nc3ccc(-n4cnnn4)cc3)CC2)c1C -0.6%
COc1cc2c(cc1OC)CN(C(=O)c1cc(=O)c3ccccc3o1)CC2 -1.9%
CCCOc1ccccc1N/C(=N\S(=O)(=O)c1ccc(C)cc1)Nc1nc(C)cc(C)n1 -1.5%
COc1cccc(OC)c1C(=O)Nc1cc(C)on1 -2.4%
Cc1ccc(C(=O)NC(=S)Nc2ccc(-c3cc4ccccc4oc3=O)cc2)c(C)c1 -0.7%
CC(C)c1nc(SCC(=O)Nc2ccc3c(c2)OCO3)n[nH]1 -1.1%
CCCSc1cc(N2CCN(C)CC2)nc(-c2ccc(OC)cc2)n1 0.9%
COc1cccc2c(=O)cc(C)n(CC(=O)Nc3ccc(C)c(C)c3)c12 1.1%
COc1ccc(C2CCCN2C(=O)c2cccs2)cc1 (configuration not stated) -2.5%
CCCN(CCC)Cc1cc2ccccc2c2c1COC2 6.5%
C[C@@H]1C[C@H](Nc2ccccc2)c2ccccc2N1C(=O)c1cccnc1 2.8%
O=C(Nc1ccc(N2CCOCC2)cc1)c1ccc(Cl)nc1 2.6%
O/N=C(\c1ccc(Cl)cc1Cl)c1ncc(C(F)(F)F)cc1Cl 1.2%
O=C1CCCC2=C1C(c1ccco1)Nc1ccc3ccccc3c12 (configuration not stated) 2.9%
CCn1c2c(c3ccc(OC)cc31)CCCC2=O -1%
Cc1ccccc1OCC(=O)Nc1cccc(NC(=O)c2ccco2)c1 1.8%
CC1CCN(CC(=O)N2CCCc3c2c(=O)oc2ccc(OCc4ccccc4)cc32)CC1 -1.7%
CCOC(=O)c1nn(-c2ccccc2C)c2nc(-c3ccc(Cl)cc3)c(C#N)c(=O)n12 2.1%
CCOC(=O)CC1(C)NC(=O)c2c(C)sc(C(=O)OCC)c2N1 (configuration not stated) 0.1%
COC(=O)/C(=C\Nc1ccc(Cl)cc1Cl)NC(=O)c1ccc(Cl)cc1Cl 3.3%
O=C(Cc1sc(-c2ccccc2)nc1-c1ccccc1)Nc1ccc(Cl)cc1 2.9%
Cc1ccc(-n2nc(C)c3cc(C(=O)O)sc32)cc1 5.6%
CCc1sc(N(C(=O)Cc2ccccc2)c2ccc(F)cc2)nc1-c1ccccc1 6.3%

Looked up one by one from above, 3 records:
inhibition, inactive:
Cc1ccc(S(=O)(=O)N2CCN(C(C)C(=O)N3CCCc4ccccc43)CC2)cc1 (configuration not stated) -2.3%
CCCN(CCC)Cc1cc2ccccc2c2c1COC2 6.5%
CCCSc1cc(N2CCN(C)CC2)nc(-c2ccc(OC)cc2)n1 0.9%
